According to patent US20240398942A1, “USE OF ANTI-CD40 ANTIBODY” (CHIA TAI TIANQING PHARMACEUTICAL GROUP CO., LTD., priority 2021, published 2024):
Where a chain is given by its changes, count along the chain named. Results are given in words; binding and its absence hold for the method and conditions named. Some binding calls cover weakened binding; strength is not graded here.

Chains of the proteins cited; added tags and fusions are not shown. Lines headed by an entry give the natural chain unless they say otherwise; changes in a name come on top. A line that says so, or that is headed by a name, gives the form on record, which may keep a tag or linker.
cynomolgus monkey CD40-his protein (Acro biosystems, Cat. No. CD0-C52H6) (G7PG38, form named): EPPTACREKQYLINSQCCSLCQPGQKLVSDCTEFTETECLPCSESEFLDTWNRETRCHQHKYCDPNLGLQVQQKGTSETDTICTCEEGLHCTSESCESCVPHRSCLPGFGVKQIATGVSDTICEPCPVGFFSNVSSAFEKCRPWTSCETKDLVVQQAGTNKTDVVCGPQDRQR

B1: chimeric antibody C1H1 (antibody, human IgG1, kappa, V domains shown)
VH: EVKLVESGGGLVKPGASLKLSCAASGFTFSNYGISWVRQTSDKRLEWVASISSGGDNTYYPDNVKGRFTISRENAKNTLYLQMSSLKSEDTALYYCARAGEKAMDYWGQGTSVTVSS
VL: DIVLTQSPVTLSVTPGDSVSLSCRASQTINNNLHWYQQKSHESPRLLIKYASQSISGIPSRFSGSGSGTDFTLSINSVETEDFGIYFCQQFSSWPLTFGAGTKLELKR
B2: BM1 (dacetuzumab) (antibody, human IgG1, kappa, V domains shown)
VH: EVQLVESGGGLVQPGGSLRLSCAASGYSFTGYYIHWVRQAPGKGLEWVARVIPNAGGTSYNQKFKGRFTLSVDNSKNTAYLQMNSLRAEDTAVYYCAREGIYWWGQGTLVTVSS
VL: DIQMTQSPSSLSASVGDRVTITCRSSQSLVHSNGNTFLHWYQQKPGKAPKLLIYTVSNRFSGVPSRFSGSGSGTDFTLTISSLQPEDFATYFCSQTTHVPWTFGQGTKVEIKR
B3: humanized antibody huC1H1-V1 (antibody, human IgG2, kappa, V domains shown)
VH: EVQLVESGGGLVKPGGSLRLSCAASGFTFSNYGISWVRQAPGKGLEWVASISSGGDNTYYPDNVKGRFTISRDNAKNSLYLQMNSLRAEDTAVYYCARAGEKAMDYWGQGTLVTVSS
VL: EIVLTQSPATLSLSPGERATLSCRASQTINNNLHWYQQKPGQAPRLLIKYASQSISGIPARFSGSGSGTDFTLTISSLEPEDFAVYFCQQFSSWPLTFGGGTKVEIKR
B4: humanized antibody huC1H1-V2 (antibody, human IgG2, kappa, V domains shown)
VH: B3 VH with A49S
VL: B3 VL

Biological target: cynomolgus monkey CD40-his protein (Acro biosystems, Cat. No. CD0-C52H6) (cynomolgus monkey) (UniProt G7PG38)
Assay: SPR (Biacore)

Binder | binding
B1 | binds
B2 | binds
B3 | binds
B4 | binds
